Assay results

From PubChem BioAssay record AID1080 (Emory University Molecular Libraries Screening Center, 2008).

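A cell line overexpressing EP4 prostanoid receptors, stimulated with a low (about EC15) PGE2 dose; cAMP read by HTRF FRET after a short room-temperature incubation.
Compounds were tested at 20 µM final. A low (about EC15) PGE2 dose was present.
Percent cAMP induction as a fraction of the 1 µM PGE2 response, averaged over three replicates; a higher value means more cAMP.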

Values are in %.
Common to all entries: measured here: EP4 receptor counter-screen.
Part of the compounds only, not a random draw; the main read-out is not listed here.

SMILES,setting,cAMP induction (%)
O=C(CN1CCCCCC1)Nc1ccccc1Oc1ccccc1,percent of 1 uM PGE2 response; plus low (about EC15) PGE2 agonist,7.363
CCCC(=O)N1CCCC(c2nc(-c3cccs3)no2)C1 (configuration not stated),percent of 1 uM PGE2 response; plus low (about EC15) PGE2 agonist,6.293
O=c1c2ccccc2c(-c2ccccc2)nn1-c1ccc(Cl)c(Cl)c1,percent of 1 uM PGE2 response; plus low (about EC15) PGE2 agonist,-9.313
CCc1cc2cc3c(cc2nc1SCC(=O)OC(C)C)OCO3,percent of 1 uM PGE2 response; plus low (about EC15) PGE2 agonist,-5.08
Cn1c(CNc2ccc(F)cc2)nnc1SCC(=O)NNC(=O)Cc1ccccc1,percent of 1 uM PGE2 response; plus low (about EC15) PGE2 agonist,-7.37
CCOC(=O)c1c(N)sc2c1CCC(CC)C2 (configuration not stated),percent of 1 uM PGE2 response; plus low (about EC15) PGE2 agonist,10.55
Cc1cccc(C)c1NC(=O)CSc1nc(COc2ccccc2)nc2ccccc12,percent of 1 uM PGE2 response; plus low (about EC15) PGE2 agonist,7.1
O=C(O)c1csc(N/N=C/c2ccc(Br)cc2)n1,percent of 1 uM PGE2 response; plus low (about EC15) PGE2 agonist,15.02
CN1C(=O)/C(=C/c2ccccc2OCc2cccc(F)c2)N(C)C1=S,percent of 1 uM PGE2 response; plus low (about EC15) PGE2 agonist,-5.03
CC1(C)Oc2ccc(C(=O)N3CCOCC3)cc2N(CC(=O)N2CCOCC2)C1=O,percent of 1 uM PGE2 response; plus low (about EC15) PGE2 agonist,1.107
COc1ccc(Oc2cc(C(F)(F)F)nc(N(C)C)n2)cc1,percent of 1 uM PGE2 response; plus low (about EC15) PGE2 agonist,14
O=S(Cc1cc(Sc2ccccc2)nc(-c2ccccc2)n1)c1ccccc1 (configuration not stated),percent of 1 uM PGE2 response; plus low (about EC15) PGE2 agonist,-1.937
CCCCOC(=O)CSc1nc(N)c(C#N)c(-c2ccc(OCC)cc2)c1C#N,percent of 1 uM PGE2 response; plus low (about EC15) PGE2 agonist,58.55
CC(C)Oc1ccc(/C=C(/NC(=O)c2ccccc2)C(=O)NCCC(=O)O)cc1,percent of 1 uM PGE2 response; plus low (about EC15) PGE2 agonist,7.047
COc1ccc(N=Cc2cc(Cc3ccccc3Cl)cc([N+](=O)[O-])c2O)cc1OC,percent of 1 uM PGE2 response; plus low (about EC15) PGE2 agonist,-6.68
CCCCc1nnc(SCCSc2nnc(CCCC)n2N)n1N,percent of 1 uM PGE2 response; plus low (about EC15) PGE2 agonist,-1.893
C/C(=N\N(Cc1ccccc1)c1ccccc1)c1cccnc1,percent of 1 uM PGE2 response; plus low (about EC15) PGE2 agonist,4.957
CC(=O)CSc1ncnc2sc3c(c12)CCC(C)C3 (configuration not stated),percent of 1 uM PGE2 response; plus low (about EC15) PGE2 agonist,8.663

Some entries from above, unchanged:

{"smiles": "CC(=O)CSc1ncnc2sc3c(c12)CCC(C)C3", "stereo": "configuration not stated", "setting": "percent of 1 uM PGE2 response; plus low (about EC15) PGE2 agonist", "cAMP induction (%)": "8.663"}
{"smiles": "CCCCc1nnc(SCCSc2nnc(CCCC)n2N)n1N", "setting": "percent of 1 uM PGE2 response; plus low (about EC15) PGE2 agonist", "cAMP induction (%)": "-1.893"}